Data published in PMC11335278.
These are yes or no findings as the source states them, for the method shown. In cells and extracts the contact can be indirect. Some entries that bind do so weakly or less than the wild type.

Amino acid sequences for entries named in this document (tags omitted). Residues count along the entry.
UniProt P27986, residues 79-333: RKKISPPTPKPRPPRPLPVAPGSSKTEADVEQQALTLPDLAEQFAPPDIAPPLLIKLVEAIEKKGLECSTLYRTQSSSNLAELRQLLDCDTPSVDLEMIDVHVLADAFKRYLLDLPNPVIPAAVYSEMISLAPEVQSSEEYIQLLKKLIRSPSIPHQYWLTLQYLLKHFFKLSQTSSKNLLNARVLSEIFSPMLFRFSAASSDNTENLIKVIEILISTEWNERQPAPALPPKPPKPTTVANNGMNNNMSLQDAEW
UniProt Q8CFN2: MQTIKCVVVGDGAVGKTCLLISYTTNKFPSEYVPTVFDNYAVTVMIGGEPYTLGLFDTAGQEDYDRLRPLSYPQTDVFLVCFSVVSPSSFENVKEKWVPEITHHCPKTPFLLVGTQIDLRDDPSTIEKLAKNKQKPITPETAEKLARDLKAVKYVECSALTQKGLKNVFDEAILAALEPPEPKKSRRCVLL
UniProt Q63788: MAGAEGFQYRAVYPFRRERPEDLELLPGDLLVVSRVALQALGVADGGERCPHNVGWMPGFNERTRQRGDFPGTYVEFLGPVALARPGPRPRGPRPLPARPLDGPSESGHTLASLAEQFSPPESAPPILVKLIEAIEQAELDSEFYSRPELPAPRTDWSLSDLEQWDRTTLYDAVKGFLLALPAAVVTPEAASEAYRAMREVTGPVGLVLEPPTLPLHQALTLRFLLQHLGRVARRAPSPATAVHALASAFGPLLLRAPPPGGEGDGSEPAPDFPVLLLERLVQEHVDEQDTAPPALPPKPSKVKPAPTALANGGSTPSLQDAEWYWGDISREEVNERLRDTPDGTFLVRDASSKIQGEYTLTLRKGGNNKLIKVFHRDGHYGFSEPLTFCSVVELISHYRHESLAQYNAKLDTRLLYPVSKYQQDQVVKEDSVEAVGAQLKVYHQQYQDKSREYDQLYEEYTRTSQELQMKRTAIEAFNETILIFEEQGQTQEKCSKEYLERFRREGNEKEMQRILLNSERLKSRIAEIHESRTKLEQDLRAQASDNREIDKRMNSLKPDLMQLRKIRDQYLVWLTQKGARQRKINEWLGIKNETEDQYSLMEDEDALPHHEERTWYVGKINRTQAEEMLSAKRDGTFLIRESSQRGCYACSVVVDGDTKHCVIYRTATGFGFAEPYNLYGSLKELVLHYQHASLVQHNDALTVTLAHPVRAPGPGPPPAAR

What was measured:
[1] = target: GST fused to the BH domain of p85β (UniProt O00459); test: pull-down; GST fusion protein on glutathione beads as bait, 50 µg lysate, 1 h at 4 °C; lysis buffer 20 mM Tris-HCl pH 7.5, 150 mM NaCl, 1% Triton X-100, 1 mM DTT, 10 mM MgCl2; extracts without nucleotide incubation; Western blot for Rac1 and Cdc42; only the target purified
[2] = target: GST fused to the BH domain of p85α (UniProt P27986); test: as above
[3] = target: GST fused to the BH domain of p85β (UniProt O00459); test: pull-down; as a1, but lysates incubated with 10 mM EDTA (40 min, room temperature), then 1 mM GDP with 60 mM MgCl2 (1 h on ice): inactive form of the GTPase; only the target purified
[4] = target: GST fused to the BH domain of p85α (UniProt P27986); test: as above
[5] = target: GST fused to the BH domain of p85β (UniProt O00459); test: pull-down; as a1, but lysates incubated with 10 mM EDTA (40 min, room temperature), then 0.1 mM GMP-PNP with 60 mM MgCl2 (1 h on ice): active form of the GTPase; only the target purified
[6] = target: GST fused to the BH domain of p85α (UniProt P27986); test: as above
[7] = target: p110α catalytic subunit of PI3K (rat (endogenous in hippocampal neurons)); test: co-IP; anti-p110α antibody and Protein G Sepharose from hippocampal extracts (20 mM Tris-HCl pH 7.5, 150 mM NaCl, 1% Triton X-100, 1 mM EGTA, 1 mM EDTA, 5 mM MgCl2); neurons infected with shp85α (L + S) or shp85β; Western blot

## Cdc42 (from UniProt Q8CFN2 1-191)
[1]
  binding: binds weakly
[2]
  binding: binds weakly
[3]
  binding: binds
[4]
  binding: binds
[5]
  binding: binds
[6]
  binding: binds

## p85β regulatory subunit of PI3K (from UniProt Q63788 1-722)
[7]
  binding: binds

## p85α regulatory subunit of PI3K (from UniProt Q63787-1 1-724)
[7]
  binding: binds
